Measured values reported in the supplement of paper PMC4862054.
Most entries show no effect beyond the scatter of the controls.

Legend:
Assay in all cases: normalised response (% of control), CellTox Green; higher = less cell death (100 = DMSO, 0 = benzethonium chloride kill control)
Conditions in all cases: incubation time: 72 h
[1] = test system: HDQ-P1
Description: (§1)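 DSRT, 72 h incubation, CellTox Green / CellTiter-Glo readout. Signal is normalised to DMSO and benzethonium chloride controls. Value is the normalised response at the lowest tested concentration.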

[2] = test system: HCC1599
Description: as §1

[3] = test system: Hs578T
Description: as §1

[4] = test system: CAL-148
Description: as §1

[5] = test system: BT-474
Description: as §1

[6] = test system: CAL-51
Description: as §1

[7] = test system: DU-4475
Description: as §1

[8] = test system: MDA-MB-468
Description: as §1

[9] = test system: HCC1143
Description: as §1

[10] = test system: MDA-MB-453
Description: as §1

[11] = test system: MCF-10A
Description: as §1

[12] = test system: MDA-MB-436
Description: as §1

[13] = test system: MFM-223
Description: as §1

[14] = test system: CAL-120
Description: as §1

[15] = test system: CAL-85-1
Description: as §1

[16] = test system: BT-549
Description: as §1

[17] = test system: MDA-MB-231
Description: as §1

SMILES | normalised response [1] [%] | normalised response [2] [%] | normalised response [3] [%] | normalised response [4] [%] | normalised response [5] [%] | normalised response [6] [%] | normalised response [7] [%] | normalised response [8] [%] | normalised response [9] [%] | normalised response [10] [%] | normalised response [11] [%] | normalised response [12] [%] | normalised response [13] [%] | normalised response [14] [%] | normalised response [15] [%] | normalised response [16] [%] | normalised response [17] [%]
O=C(O)C1(C(=O)O)CCC1.[NH2-].[NH2-].[Pt+2] [Carboplatin] (1 nM) | 104 | 115 | 110 | 99.1 | 97.7 | 115 | 111 | 76.2 | 125 | 101 | 108 | 76.7 | 102 | 106 | 105 | 96.2 | 108
Nc1nc2[nH]cc(CCc3ccc(C(=O)N[C@@H](CCC(=O)O)C(=O)O)cc3)c2c(=O)[nH]1 [Pemetrexed] (1 nM) | 99.8 | 105 | 104 | 103 | 95.5 | 95.8 | 99.2 | 70.1 | 110 | 96.8 | – | 68.5 | 104 | 97.9 | 97.2 | 93 | 101
CCc1cncnc1N1CCN(Cc2nc3ccc(C(F)(F)F)cc3[nH]2)CC1 (1 nM) | – | 97.7 | 114 | 90.8 | 101 | 130 | 100 | 96.4 | 125 | 111 | 101 | 80.7 | 101 | 103 | 101 | 89.5 | 95.1
COCC1(CO)C(=O)C2CCN1CC2 (configuration not stated) [Prima-1 Met] (1 nM) | 93.2 | 95.9 | 90.2 | 105 | 103 | 117 | 96.6 | 101 | 76 | 111 | 96.8 | – | 102 | 98.3 | 95.4 | 98.1 | 99.7
CCNC(=O)c1noc(-c2cc(C(C)C)c(O)cc2O)c1-c1ccc(CN2CCOCC2)cc1 [NVP-AUY922] (0.1 nM) | 88.3 | 93.8 | 111 | 107 | 100 | 115 | 99 | 97.2 | 106 | 106 | 105 | 72.3 | 76.6 | 99.9 | 101 | 87.2 | 103
